From article PMC3934890
No constants are given. Whether binding was seen depends on the method and setting. Binding seen in cells or lysates may run through a third protein. Some entries that bind do so weakly or less than the wild type.

Protein sequences, listed by entry. Tags and fused reporters are not part of them.
UniProt Q04207: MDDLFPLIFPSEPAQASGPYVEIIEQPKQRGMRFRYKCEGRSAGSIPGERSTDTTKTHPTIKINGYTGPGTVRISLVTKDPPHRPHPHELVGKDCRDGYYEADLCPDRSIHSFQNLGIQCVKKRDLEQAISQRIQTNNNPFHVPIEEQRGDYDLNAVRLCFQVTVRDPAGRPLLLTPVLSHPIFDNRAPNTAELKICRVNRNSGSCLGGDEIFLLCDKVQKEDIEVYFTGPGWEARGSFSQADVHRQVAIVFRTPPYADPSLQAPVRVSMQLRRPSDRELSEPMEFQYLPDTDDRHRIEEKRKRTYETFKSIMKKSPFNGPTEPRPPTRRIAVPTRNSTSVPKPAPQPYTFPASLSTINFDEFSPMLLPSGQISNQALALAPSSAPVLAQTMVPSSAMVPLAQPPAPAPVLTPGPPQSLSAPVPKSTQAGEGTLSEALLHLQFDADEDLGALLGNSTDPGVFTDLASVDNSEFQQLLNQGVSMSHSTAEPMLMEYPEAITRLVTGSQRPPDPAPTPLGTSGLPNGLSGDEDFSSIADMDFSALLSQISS
UniProt P02340: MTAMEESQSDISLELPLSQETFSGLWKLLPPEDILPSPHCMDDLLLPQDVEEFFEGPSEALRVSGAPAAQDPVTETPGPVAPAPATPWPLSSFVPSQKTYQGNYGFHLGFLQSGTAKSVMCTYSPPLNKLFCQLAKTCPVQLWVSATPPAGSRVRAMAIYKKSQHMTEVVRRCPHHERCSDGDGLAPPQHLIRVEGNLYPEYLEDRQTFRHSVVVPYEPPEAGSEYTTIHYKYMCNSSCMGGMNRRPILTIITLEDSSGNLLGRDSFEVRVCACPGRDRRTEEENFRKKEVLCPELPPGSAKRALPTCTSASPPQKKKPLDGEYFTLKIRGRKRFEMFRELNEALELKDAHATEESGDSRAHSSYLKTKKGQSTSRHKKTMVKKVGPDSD

Target: p65, a prominent member of the NFκB family (mouse (endogenous in heart tissue)) (UniProt Q04207)
Experiment: co-IP; pre-cleared nuclear extract from heart homogenate of ADR-treated mice in RIPA buffer; incubated with rabbit anti-p65 overnight at 4°C, anti-rabbit IgG beads 2 h at room temperature, 4 washes with RIPA; Western blot with mouse anti-p53, reprobed with anti-p65

Q: p53 (from UniProt P02340 1-390) was tested. Which binding did it give?
A: binds
